The results in this text go back to PubChem BioAssay AID2685 (National Center for Advancing Translational Sciences (NCATS), 2010).

A short description of this test: qHTS Assay for Lipid Storage Modulators in Drosophila S3 Cells.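 As to cell number change: cells counted by Cell Tracker Red CMTPX staining in the red channel.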 Particulars: BODIPY lipid droplet fluorescence, 18-24 h; for cell number change: measured here: cell count max response, cells fed with added oleic acid. In short, it runs like this: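 Laser-scanning cytometry quantifies lipid droplet accumulation (500–530 nm total intensity; droplet/cell object ratio) in oleic acid-fed (400 uM added) Drosophila S3 cells treated with a concentration series. 20 uM Triacsin C defined 100% inhibition.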

[1] abbreviates: measured here: cell number channel AC50, cells fed with added oleic acid.
[2] abbreviates: measured here: lipid fluorescence (Fed channel) AC50, cells fed with added oleic acid.

This is one part of the list. Shown are side measurements of this screen, not its main read-out; they come without a call. The list favours compounds with an active or inconclusive main result. Words in brackets tell the shape of the fitted curve; partial curves, single points and poor fits give uncertain potencies.

In the case of `OCCc1ccc(-c2ccc(Cl)cc2)o1`, the cell number change was -7.34%. Moreover, the half-maximal activity concentration (AC50) (commonly the midpoint of the concentration-response curve, whichever way the signal moves) under setting [1] was 231 nM [falling, full curve, poor fit].
Take `OC[C@H]1O[C@@H](n2cnc3c(NC4CCCC4)nc(Cl)nc32)[C@H](O)[C@@H]1O`: the cell number change stood at 11.9%. For the same compound, under setting [2], the concentration at half-maximal activity (AC50) is 29100 nM [rising, single point].
As to `CCOc1ccc(NC(=O)CSc2nc(N)c(-c3ccccc3)c(=O)[nH]2)cc1`, the cell number change is -18.3%.
Take `c1ccc(-c2ccc(CN3C[C@@H]4C(c5ccccc5)C5(c6cccnc6)CC4(C5)[C@H]3c3ccccc3)cc2)cc1` (stereo not given in full): the concentration at half-maximal activity (AC50) under setting [2] was 580 nM [rising, full curve, poor fit].
Regarding `CCOC(=O)c1ccc[n+](CC(=O)c2ccc(OC)cc2)c1`, the cell number change stood at 6.26%. Further, under setting [1], the AC50 was 6510 nM [rising, single point].
As to `COCCn1c(C)cc(C(=O)COC(=O)c2ccc3c(c2)NC(=O)CS3)c1C`, the cell number change was 40%. For the same compound, the concentration at half-maximal activity (AC50) under setting [1] is 23100 nM [rising, partial curve, poor fit]. Also, under setting [2], the AC50 is 29100 nM [rising, single point].
As for `CCN1CCN(C(=O)c2cc3c(=O)n4ccccc4nc3n2Cc2ccccc2)CC1`, the AC50 under setting [1] is 6510 nM [rising, single point].
Regarding `Cc1cc(NC(=O)CSCC(=O)Nc2nc3ccccc3s2)no1`, the cell number change was 12.1%. Under setting [2], the half-maximal activity concentration (AC50) is 231 nM [rising, full curve, poor fit].
In the case of `Cc1ccc(C(C)C)c(OCCNCc2ccccc2)c1`, the cell number change was -59.1%. Further, the concentration at half-maximal activity (AC50) under setting [1] was 20600 nM [falling, single point].
In the case of `CC(C)NC(=S)Nc1ccc(S(=O)(=O)Nc2ncccn2)cc1`, the cell number change is -2.52%. The AC50 under setting [2] is 820 nM [rising, full curve].
Turning to `CCCC(=O)Nc1ccc(S(=O)(=O)Nc2cc(OC)nc(OC)n2)cc1`, under setting [2], the AC50 was 116 nM [rising, full curve, poor fit].
For the compound `CCc1ccc(C(=O)N2CCC(c3nc4ccccc4s3)CC2)cc1`, the cell number change was 58.1%. Also, under setting [2], the concentration at half-maximal activity (AC50) is 23100 nM [rising, partial curve].
With `Cc1cc(NC(=O)CCC(=O)N(Cc2ccco2)C2(C(=O)NC3CCCC3)CCCCC2)no1`, the cell number change was 13.3%. Besides, the AC50 under setting [2] was 5.17 nM [falling, full curve, poor fit].
`NS(=O)(=O)c1ccc(CCNS(=O)(=O)c2ccc3c(c2)NC(=O)CO3)cc1`: the cell number change was -23.3%.
On to `CC1CCCN(c2oc(-c3cccc4ccccc34)nc2C#N)C1` (stereo not given), for which the cell number change is 38.9%. Also, the AC50 under setting [1] was 13000 nM [rising, partial curve]. In addition, the AC50 under setting [2] was 291 nM [rising, full curve, poor fit].
Take `Cc1sc2ncnc(SCC(=O)NCC3CCCO3)c2c1C` (stereo not given): the cell number change is 31.3%. The half-maximal activity concentration (AC50) under setting [1] is 1.46 nM [rising, full curve, poor fit]. Moreover, the half-maximal activity concentration (AC50) under setting [2] was 1840 nM [rising, partial curve].
Turning to `Cc1cc(C(=O)NNC(=O)/C=C/c2ccco2)c(C)o1`, the cell number change is 3.61%.
Regarding `COc1ccc(NCc2nnc(SCC#N)n2-c2ccccc2OC)cc1`, the cell number change is 18.4%. Moreover, under setting [1], the AC50 was 146 nM [rising, full curve, poor fit].
For the compound `CCCc1cc(C(=O)Nc2cc(Cl)ccc2O)no1`, the cell number change was determined as 14.6%. The concentration at half-maximal activity (AC50) under setting [2] is 1030 nM [falling, full curve, poor fit].
For the compound `CCOC(=O)c1sc(/N=C/c2c(C)[nH]n(-c3ccccc3)c2=O)c(C#N)c1C`, the AC50 under setting [2] was 6510 nM [rising, single point].
Turning to `Clc1ccc2nc(CSc3nncn3-c3ccccc3)cn2c1`, the cell number change is -0.557%. Moreover, under setting [2], the half-maximal activity concentration (AC50) was 9200 nM [rising, partial curve].
Take `CC(=O)N1CCOc2ccc(S(=O)(=O)N(C)c3ccc(C)cc3)cc21`: the cell number change is -27.2%.
On to `COc1cc(Cl)c(C)cc1NC(=O)CNC(C)c1ccccc1OC` (stereo not given), for which the cell number change turned out to be 25.3%. Also, the concentration at half-maximal activity (AC50) under setting [1] was 164 nM [rising, full curve, poor fit]. For the same compound, the half-maximal activity concentration (AC50) under setting [2] is 7310 nM [rising, partial curve, poor fit].
Turning to `CCN1C(=O)c2cccc3c(S(=O)(=O)N4CCCC4C(=O)O)ccc1c23` (stereo not given), the cell number change came to 1.28%. For the same compound, under setting [2], the concentration at half-maximal activity (AC50) is 116 nM [rising, single point].
For `CCOC(=O)c1c(CN2CCOCC2)n(-c2ccccc2)c2cc(Br)c(O)c(CN(C)C)c12`, the cell number change is -9.66%.
Regarding `COc1cc(OC)cc(C(=O)N2CCN(Cc3cccc(F)c3)CC2)c1`, the cell number change stood at 39.1%. Besides, under setting [1], the AC50 was 4110 nM [rising, single point].
Consider `Cc1onc(-c2c(F)cccc2Cl)c1C(N)=S`, for which the cell number change is -14.9%. The half-maximal activity concentration (AC50) under setting [1] is 164 nM [falling, full curve, poor fit]. Besides, under setting [2], the half-maximal activity concentration (AC50) was 116 nM [falling, full curve, poor fit].
With `COc1ccc(CCn2c(NCCCN3CCOCC3)nc3c2c(=O)[nH]c(=O)n3C)cc1`, the cell number change was -0.952%. Also, under setting [1], the AC50 was 731 nM [falling, single point]. Under setting [2], the AC50 was 651 nM [falling, single point].
Consider `CCN(CC)C(=O)C1CCN(Cc2ccc(OCc3ccccc3)c(OC)c2)CC1`, for which the AC50 under setting [2] was 6510 nM [rising, single point].
Turning to `COC(=O)C(C)n1cnc2c(nnn2-c2cccc(Cl)c2)c1=O` (stereo not given), the cell number change was found to be 51.2%. Also, under setting [1], the concentration at half-maximal activity (AC50) is 1840 nM [rising, full curve]. Further, the AC50 under setting [2] was 2590 nM [rising, full curve].
Consider `CC(=O)NC1=NN(C(C)=O)C2(S1)C(=O)N(C(C)C)c1ccc(C)cc12` (stereo not given), for which the cell number change was found to be 79.8%. Under setting [1], the AC50 is 25900 nM [rising, single point]. In addition, under setting [2], the concentration at half-maximal activity (AC50) was 29100 nM [rising, single point].
`CCOc1c2ccc(C(=O)NCC34CC5CC(CC(C5)C3)C4)cc2nn1CC`: the cell number change was -10.8%. Under setting [2], the AC50 is 7310 nM [falling, partial curve].
On to `CC(=O)c1ccc(NC(=O)Cn2c3ccccc3c3nc(=O)cc(C)n32)cc1`, for which the cell number change was found to be 2.45%. Also, under setting [1], the half-maximal activity concentration (AC50) was 820 nM [falling, single point].
For the compound `O=C1/C(=C/C=C/c2ccco2)SC(=S)N1c1ccc(O)cc1`, the cell number change is -25.8%. Moreover, the AC50 under setting [1] is 2060 nM [falling, full curve, poor fit]. The AC50 under setting [2] is 4110 nM [falling, single point].
As to `Cc1ccc(C(=O)NCC(=O)N2CCCC(C(F)(F)F)C2)s1` (stereo not given), the cell number change worked out at 11.5%. Under setting [1], the AC50 is 65.1 nM [rising, full curve, poor fit]. For the same compound, the half-maximal activity concentration (AC50) under setting [2] was 29100 nM [rising, single point].
For the compound `COc1ccc(Cc2c(O)nc(SCC(=O)c3ccc(OC)cc3)[nH]c2=O)cc1`, the cell number change was determined as 7.05%.
On to `Cc1c(C(=O)NC2CC2)oc2ccccc12`, for which the cell number change is -2.08%. Also, under setting [2], the AC50 is 20600 nM [rising, partial curve, poor fit].
For `Cc1nnc(NC(=O)C(C)Sc2nnc(-c3ccco3)n2C(C)C)s1` (stereo not given), the cell number change stood at 26.1%. The AC50 under setting [1] is 4.61 nM [rising, full curve, poor fit]. Further, under setting [2], the AC50 is 1640 nM [falling, full curve].
Regarding `Cc1ccc(C(=O)NCC(=O)NCc2cc(=O)n(C)c(=O)n2C)cc1C`, the cell number change was -9.44%. Also, under setting [2], the AC50 is 580 nM [falling, single point].
Turning to `Cc1ccc2c(c1)Oc1ccc([N+](=O)[O-])cc1C(=O)N2`, the cell number change was determined as 1.93%. Also, the half-maximal activity concentration (AC50) under setting [2] was 231 nM [rising, full curve, poor fit].
Regarding `O=C(CCC(=O)OCC(=O)c1ccc(Br)cc1)NC1CCCCC1`, the cell number change worked out at 5.71%.
Consider `COc1cc(C(=O)NNC(=O)c2ccco2)cc(OC)c1OC`, for which the cell number change was 21.7%. In addition, the concentration at half-maximal activity (AC50) under setting [2] is 29100 nM [rising, partial curve].
Take `Cc1ccc(-n2nc(C)c(/C=N/NC(=O)c3cccs3)c2Cl)cc1`: the cell number change is -57.2%. Under setting [1], the AC50 is 25900 nM [falling, partial curve]. Also, the half-maximal activity concentration (AC50) under setting [2] was 3260 nM [falling, partial curve].
For the compound `O=C(Cc1cccc2ccccc12)NN1C(=O)/C(=C\c2cccnc2)SC1=S`, the cell number change was -29.9%. The concentration at half-maximal activity (AC50) under setting [2] was 517 nM [falling, full curve].
Take `c1ccc(-c2n[nH]c3c2CCC3)cc1`: the cell number change is -17.9%. Further, under setting [2], the AC50 was 1460 nM [falling, full curve].
For the compound `NC(=O)c1nsc(C(=O)N(c2ccc(F)cc2)C(C(=O)NCC2CCCO2)c2ccc3ncccc3c2)c1N` (stereo not given), the cell number change is 16.5%. The half-maximal activity concentration (AC50) under setting [2] is 1460 nM [rising, full curve].
For the compound `CN1C(=O)C(O)(CC(=O)/C=C/C=C/c2ccccc2)c2ccccc21` (stereo not given), the cell number change is 6.31%. The AC50 under setting [2] is 920 nM [falling, full curve, poor fit].
With `COC(=O)c1nccnc1C(=O)Nc1ccccc1N1CCOCC1`, the cell number change came out at 3.41%.
With `CCOC(=O)c1c(S(=O)(=O)N2CCCC(C(=O)Nc3cccc(C)n3)C2)c(C)n(C)c1C` (stereo not given), the cell number change was -22.4%. Moreover, the AC50 under setting [1] was 2060 nM [falling, partial curve, poor fit].
Regarding `CCOC(CNc1c([N+](=O)[O-])c(=O)n(C)c(=O)n1C)OCC`, the cell number change is 30.8%. Further, under setting [1], the AC50 was 23100 nM [rising, single point]. In addition, the AC50 under setting [2] was 184 nM [falling, full curve].
As for `CC(=O)c1ccc(OCCCC(=O)N2CCN(S(=O)(=O)c3cc(C)ccc3C)CC2)cc1`, the cell number change is 17%. Besides, the AC50 under setting [1] was 651 nM [rising, partial curve]. Under setting [2], the AC50 was 1460 nM [rising, full curve].
Consider `Cc1ccc(OCC(=O)N/N=C/c2ccncc2)cc1C`, for which the cell number change was -30.9%. Also, under setting [1], the concentration at half-maximal activity (AC50) is 146 nM [falling, full curve]. Further, the AC50 under setting [2] was 146 nM [falling, full curve].
Take `Cc1c(C(=O)N(C)C)sc(NC(=O)c2cc([N+](=O)[O-])cc([N+](=O)[O-])c2)c1C#N`: the cell number change was 7.64%. Besides, the AC50 under setting [2] was 29100 nM [rising, single point].
Turning to `Cc1[nH]c2ccccc2c1-c1nc2ccccc2[nH]c1=O`, the cell number change turned out to be 18.5%.
On to `O=C1/C(=C/c2ccccc2[N+](=O)[O-])COc2ccccc21`, for which the cell number change was -60.2%.
Regarding `CC(Oc1ccc(Cl)cc1)C(=O)N1CCCc2ccccc21` (stereo not given), the cell number change was determined as 27.4%. The AC50 under setting [2] was 35500 nM [rising, single point].
For the compound `O=C(NCC(=O)N(Cc1ccco1)C(C(=O)NC1CCCCC1)c1cccnc1)c1cccs1` (stereo not given), the cell number change worked out at 66.5%. Besides, the AC50 under setting [1] is 5170 nM [rising, partial curve]. For the same compound, under setting [2], the AC50 is 580 nM [rising, single point].
